# HELM strings list residues between dots; [ac] is acetyl, [am] amide, other brackets name non-standard units.
# How the values were obtained:
# [1] = general procedure: Fmoc solid-phase peptide synthesis; 2-chlorotrityl chloride resin (Carbolution, 1.60 mmol/g, 100–200 mesh); DIC/hydroxybenzotriazole (amino acids); bromoacetic acid/DIC (submonomer); HATU; details: for final HPLC purity: 218 nm; for isolated yield: on resin loading
# [2] = whole synthesis, scale of the general procedure 200 µmol
# [3] = whole synthesis, over 11 steps, scale of the general procedure 200 µmol
# [4] = conjugation step, on macrocycle
Substance,isolated mass ([1]; whole synthesis) [mg],"final HPLC purity [1, 2] [%]","isolated yield [1, 3] [%]",final HPLC purity ([1]; conjugation step) [%],"conjugation yield [1, 4] [%]",also measured
"PEPTIDE1{F.[N1ph].[N1ph].[N1ph].[N4am].F}$PEPTIDE1,PEPTIDE1,1:R1-6:R2$$$V2.0",–,–,–,–,–,final HPLC purity (peptide synthesis; whole synthesis): 87%; isolated yield (peptide synthesis; whole synthesis): 15%
"PEPTIDE1{F.[N1ph].[N1ph].[N4am]}$PEPTIDE1,PEPTIDE1,1:R1-4:R2$$$V2.0",30.8,>99,16,–,–,–
"PEPTIDE1{F.[N1ph].[N1ph].[N4am]}|CHEM1{[Rhod]}$PEPTIDE1,PEPTIDE1,1:R1-4:R2|PEPTIDE1,CHEM1,4:R3-1:R2$$$V2.0",–,–,–,>99,23,–
"PEPTIDE1{F.[N1phpCl].[N1phpCl].[N1phpCl].[N4am].F}$PEPTIDE1,PEPTIDE1,1:R1-6:R2$$$V2.0",–,–,–,–,–,final HPLC purity (peptide synthesis; whole synthesis): 83%; isolated yield (peptide synthesis; whole synthesis): 12%
"PEPTIDE1{F.[N1phpCl].[N4am].[N1ph]}$PEPTIDE1,PEPTIDE1,1:R1-4:R2$$$V2.0",31.7,>99,26,–,–,–
"PEPTIDE1{F.[N1phpCl].[N4am].[N1ph]}|CHEM1{[Rhod]}$PEPTIDE1,PEPTIDE1,1:R1-4:R2|PEPTIDE1,CHEM1,3:R3-1:R2$$$V2.0",–,–,–,89,22,–
"PEPTIDE1{F.[N3m].[N1ph].[N4am]}$PEPTIDE1,PEPTIDE1,1:R1-4:R2$$$V2.0",10.0,97,9.6,–,–,–
"PEPTIDE1{F.[N3m].[N1ph].[N4am]}|CHEM1{[Rhod]}$PEPTIDE1,PEPTIDE1,1:R1-4:R2|PEPTIDE1,CHEM1,4:R3-1:R2$$$V2.0",–,–,–,>99,17,–
"PEPTIDE1{F.[N3m].[N3m].[N1ph].[N4am].F}$PEPTIDE1,PEPTIDE1,1:R1-6:R2$$$V2.0",15.3,>99,–,–,–,"isolated yield ([1]; whole synthesis, over 15 steps, scale of the general procedure 200 µmol): 9.6%"
"PEPTIDE1{F.[N4am].[N1ph].Y}$PEPTIDE1,PEPTIDE1,1:R1-4:R2$$$V2.0",16.4,94,28,–,–,–
"PEPTIDE1{W.[N1ph].[N1ph].K}$PEPTIDE1,PEPTIDE1,1:R1-4:R2$$$V2.0",17.3,–,17,–,–,–
"PEPTIDE1{W.[N1ph].[N1ph].K}|CHEM1{[Rhod]}$PEPTIDE1,PEPTIDE1,1:R1-4:R2|PEPTIDE1,CHEM1,4:R3-1:R2$$$V2.0",–,–,–,>99,38,–
"PEPTIDE1{W.[N1phpCl].[N1phpCl].K}$PEPTIDE1,PEPTIDE1,1:R1-4:R2$$$V2.0",7.50,88,8.5,–,–,–
"PEPTIDE1{W.[N1phpCl].[N1phpCl].K}|CHEM1{[Rhod]}$PEPTIDE1,PEPTIDE1,1:R1-4:R2|PEPTIDE1,CHEM1,4:R3-1:R2$$$V2.0",–,–,–,91,21,–
"PEPTIDE1{Y.[N3m].[N3m].K}$PEPTIDE1,PEPTIDE1,1:R1-4:R2$$$V2.0",14.8,91,13,–,–,–
"PEPTIDE1{Y.[N3m].[N3m].K}|CHEM1{[Rhod]}$PEPTIDE1,PEPTIDE1,1:R1-4:R2|PEPTIDE1,CHEM1,4:R3-1:R2$$$V2.0",–,–,–,>99,11,conjugation yield ([1]; conjugation step): 6%
cyclo-(l-Phe-N1ph-N1ph-N1ph-N4am(Rhod)-l-Phe),–,–,–,–,–,"final HPLC purity (peptide synthesis; conjugation step): >99%; conjugation yield (peptide synthesis; conjugation step, T1 r10): 52%; conjugation yield (peptide synthesis; conjugation step, run 1): 91%"
cyclo-(l-Phe-N1ph^pCl-N1ph^pCl-N1ph^pCl-N4am(Rhod)-l-Phe),–,–,–,–,–,"final HPLC purity (peptide synthesis; conjugation step): >99%; conjugation yield (peptide synthesis; conjugation step, T1 r11): 62%; conjugation yield (peptide synthesis; conjugation step, run 1): 61%"
cyclo-(l-Phe-N3m-N3m-N1ph-N4am(Rhod)-l-Phe),–,–,–,–,–,conjugation yield (peptide synthesis; conjugation step): 14%; final HPLC purity (peptide synthesis; conjugation step): >99%
cyclo-(l-Phe-N4am(Rhod)-N1ph-l-Tyr),–,–,–,93,7.0,–
